Source: the supplement of paper PMC10849652
The other results are listed elsewhere or left out.

Chains of the proteins cited; added tags and fusions are not shown. Lines headed by an entry give the natural chain unless they say otherwise; changes in a name come on top.
UniProt Q9BVK6: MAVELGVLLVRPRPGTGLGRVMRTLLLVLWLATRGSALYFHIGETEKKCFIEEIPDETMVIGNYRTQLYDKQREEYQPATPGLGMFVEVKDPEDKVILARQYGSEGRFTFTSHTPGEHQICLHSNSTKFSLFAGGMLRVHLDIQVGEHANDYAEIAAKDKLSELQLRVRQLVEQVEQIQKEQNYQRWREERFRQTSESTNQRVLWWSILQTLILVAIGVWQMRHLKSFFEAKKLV
UniProt Q9NUM4, whole entry, looked up: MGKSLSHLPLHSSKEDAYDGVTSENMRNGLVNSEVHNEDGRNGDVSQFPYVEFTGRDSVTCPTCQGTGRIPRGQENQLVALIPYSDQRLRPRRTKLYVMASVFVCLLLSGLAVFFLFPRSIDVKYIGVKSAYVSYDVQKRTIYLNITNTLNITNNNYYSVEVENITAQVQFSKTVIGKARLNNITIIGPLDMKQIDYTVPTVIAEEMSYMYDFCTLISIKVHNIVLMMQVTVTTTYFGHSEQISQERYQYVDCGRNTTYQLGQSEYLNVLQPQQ
UniProt Q9Y584: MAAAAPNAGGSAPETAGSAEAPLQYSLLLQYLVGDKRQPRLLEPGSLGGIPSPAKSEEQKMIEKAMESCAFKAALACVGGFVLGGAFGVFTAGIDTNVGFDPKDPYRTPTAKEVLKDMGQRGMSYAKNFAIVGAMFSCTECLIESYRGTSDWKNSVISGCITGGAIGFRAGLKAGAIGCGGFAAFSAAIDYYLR
UniProt P29401: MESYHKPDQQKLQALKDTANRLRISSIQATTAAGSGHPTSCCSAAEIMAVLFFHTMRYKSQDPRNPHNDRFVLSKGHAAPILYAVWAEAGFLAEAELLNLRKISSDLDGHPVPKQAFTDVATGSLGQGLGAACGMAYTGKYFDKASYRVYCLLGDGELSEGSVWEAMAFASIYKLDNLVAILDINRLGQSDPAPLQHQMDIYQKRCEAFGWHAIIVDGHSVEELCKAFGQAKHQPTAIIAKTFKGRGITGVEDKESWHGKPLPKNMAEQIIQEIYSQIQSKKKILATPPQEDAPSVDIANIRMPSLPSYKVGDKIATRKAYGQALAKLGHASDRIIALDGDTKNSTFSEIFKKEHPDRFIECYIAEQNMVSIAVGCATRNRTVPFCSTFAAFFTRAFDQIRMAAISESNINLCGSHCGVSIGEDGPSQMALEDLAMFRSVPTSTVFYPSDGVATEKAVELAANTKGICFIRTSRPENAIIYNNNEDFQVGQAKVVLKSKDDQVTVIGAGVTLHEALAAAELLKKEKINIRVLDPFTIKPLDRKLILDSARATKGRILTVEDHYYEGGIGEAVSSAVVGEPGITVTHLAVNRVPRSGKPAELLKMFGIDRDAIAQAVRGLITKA
UniProt Q9Y5L4: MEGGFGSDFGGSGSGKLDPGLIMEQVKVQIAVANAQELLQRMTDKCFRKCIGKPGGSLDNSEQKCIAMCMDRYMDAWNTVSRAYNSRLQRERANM
UniProt Q9NPL8: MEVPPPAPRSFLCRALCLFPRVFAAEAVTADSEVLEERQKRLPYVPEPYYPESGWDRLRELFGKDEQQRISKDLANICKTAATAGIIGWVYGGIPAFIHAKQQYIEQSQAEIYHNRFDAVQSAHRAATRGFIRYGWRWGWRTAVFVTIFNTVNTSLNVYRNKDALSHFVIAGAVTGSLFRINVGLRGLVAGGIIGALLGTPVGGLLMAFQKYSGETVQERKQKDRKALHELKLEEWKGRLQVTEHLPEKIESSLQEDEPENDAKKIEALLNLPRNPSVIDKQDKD
UniProt Q7Z7H5: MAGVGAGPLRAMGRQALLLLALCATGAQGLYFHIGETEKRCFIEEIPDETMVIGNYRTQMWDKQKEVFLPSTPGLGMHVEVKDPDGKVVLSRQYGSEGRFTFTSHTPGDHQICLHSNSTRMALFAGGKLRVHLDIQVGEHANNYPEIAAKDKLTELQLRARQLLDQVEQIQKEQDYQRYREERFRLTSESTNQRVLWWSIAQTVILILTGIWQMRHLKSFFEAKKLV
UniProt Q3LXA3: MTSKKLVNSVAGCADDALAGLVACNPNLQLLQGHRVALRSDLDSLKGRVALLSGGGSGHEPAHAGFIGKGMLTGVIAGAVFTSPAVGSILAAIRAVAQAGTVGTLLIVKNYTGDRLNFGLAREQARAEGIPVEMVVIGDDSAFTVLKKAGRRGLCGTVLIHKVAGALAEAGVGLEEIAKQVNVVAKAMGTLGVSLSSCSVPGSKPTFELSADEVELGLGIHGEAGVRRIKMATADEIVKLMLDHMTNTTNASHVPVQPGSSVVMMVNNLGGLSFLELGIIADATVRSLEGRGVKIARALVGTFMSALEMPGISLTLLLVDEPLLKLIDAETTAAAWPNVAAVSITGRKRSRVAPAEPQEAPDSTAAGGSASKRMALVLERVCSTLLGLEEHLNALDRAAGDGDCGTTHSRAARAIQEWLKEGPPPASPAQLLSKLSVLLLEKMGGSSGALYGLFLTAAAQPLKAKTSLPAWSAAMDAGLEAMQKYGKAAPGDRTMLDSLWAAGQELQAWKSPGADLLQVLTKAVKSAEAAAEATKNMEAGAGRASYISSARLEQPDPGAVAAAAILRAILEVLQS
UniProt Q9H061: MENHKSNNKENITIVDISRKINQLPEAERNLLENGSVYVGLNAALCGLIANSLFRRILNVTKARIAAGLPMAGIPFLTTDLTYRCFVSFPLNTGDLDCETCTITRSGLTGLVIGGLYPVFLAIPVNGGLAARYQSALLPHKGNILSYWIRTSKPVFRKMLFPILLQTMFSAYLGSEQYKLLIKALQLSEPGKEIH
UniProt P62072: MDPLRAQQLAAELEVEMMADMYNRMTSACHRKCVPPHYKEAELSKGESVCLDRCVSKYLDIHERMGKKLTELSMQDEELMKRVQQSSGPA
UniProt Q9UDY2: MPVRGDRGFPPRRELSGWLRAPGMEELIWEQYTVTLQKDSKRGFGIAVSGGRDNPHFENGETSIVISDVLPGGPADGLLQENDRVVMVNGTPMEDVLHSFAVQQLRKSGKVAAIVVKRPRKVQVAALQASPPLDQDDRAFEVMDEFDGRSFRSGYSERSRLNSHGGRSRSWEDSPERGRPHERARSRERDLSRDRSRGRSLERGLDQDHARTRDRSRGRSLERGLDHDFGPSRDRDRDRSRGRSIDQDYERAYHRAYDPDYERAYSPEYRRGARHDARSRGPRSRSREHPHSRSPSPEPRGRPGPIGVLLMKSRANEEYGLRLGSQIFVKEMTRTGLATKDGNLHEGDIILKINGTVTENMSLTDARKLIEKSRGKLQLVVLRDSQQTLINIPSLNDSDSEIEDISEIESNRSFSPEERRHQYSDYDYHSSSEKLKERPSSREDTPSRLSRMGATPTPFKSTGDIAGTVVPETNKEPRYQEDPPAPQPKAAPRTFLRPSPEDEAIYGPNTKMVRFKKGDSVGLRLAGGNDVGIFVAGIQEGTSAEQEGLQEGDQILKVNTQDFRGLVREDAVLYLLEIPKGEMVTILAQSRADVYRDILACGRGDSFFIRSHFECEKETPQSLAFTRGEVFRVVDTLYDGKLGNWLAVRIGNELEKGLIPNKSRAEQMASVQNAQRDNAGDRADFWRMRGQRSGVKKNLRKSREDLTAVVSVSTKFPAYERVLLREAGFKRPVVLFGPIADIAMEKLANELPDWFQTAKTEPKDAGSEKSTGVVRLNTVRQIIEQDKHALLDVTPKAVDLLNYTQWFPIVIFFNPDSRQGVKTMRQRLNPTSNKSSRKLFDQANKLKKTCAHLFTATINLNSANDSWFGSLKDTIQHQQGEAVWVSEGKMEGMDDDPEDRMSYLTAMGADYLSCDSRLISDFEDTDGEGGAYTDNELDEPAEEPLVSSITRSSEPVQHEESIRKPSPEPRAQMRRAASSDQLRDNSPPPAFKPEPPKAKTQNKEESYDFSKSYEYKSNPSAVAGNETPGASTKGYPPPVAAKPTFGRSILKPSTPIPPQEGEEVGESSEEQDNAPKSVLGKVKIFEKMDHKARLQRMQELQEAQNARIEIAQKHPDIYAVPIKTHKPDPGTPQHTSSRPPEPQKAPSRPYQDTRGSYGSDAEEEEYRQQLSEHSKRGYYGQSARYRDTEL
UniProt Q8TBQ9: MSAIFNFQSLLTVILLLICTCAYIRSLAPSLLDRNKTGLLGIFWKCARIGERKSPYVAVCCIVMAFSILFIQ
UniProt Q5JTD0: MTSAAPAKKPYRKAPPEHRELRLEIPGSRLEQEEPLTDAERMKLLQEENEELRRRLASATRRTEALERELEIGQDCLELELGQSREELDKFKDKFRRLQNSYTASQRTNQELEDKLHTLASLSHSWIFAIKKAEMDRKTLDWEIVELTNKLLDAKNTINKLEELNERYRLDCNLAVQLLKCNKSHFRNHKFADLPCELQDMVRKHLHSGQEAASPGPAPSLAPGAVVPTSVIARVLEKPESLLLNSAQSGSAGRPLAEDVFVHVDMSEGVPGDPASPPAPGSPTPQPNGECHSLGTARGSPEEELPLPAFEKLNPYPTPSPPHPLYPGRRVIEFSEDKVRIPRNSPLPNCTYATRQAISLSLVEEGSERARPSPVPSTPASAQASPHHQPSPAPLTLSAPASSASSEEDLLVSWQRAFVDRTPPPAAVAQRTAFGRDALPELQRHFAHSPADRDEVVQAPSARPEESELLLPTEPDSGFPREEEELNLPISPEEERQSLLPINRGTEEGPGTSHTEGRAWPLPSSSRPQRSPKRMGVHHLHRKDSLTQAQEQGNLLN
UniProt Q3ZCQ8: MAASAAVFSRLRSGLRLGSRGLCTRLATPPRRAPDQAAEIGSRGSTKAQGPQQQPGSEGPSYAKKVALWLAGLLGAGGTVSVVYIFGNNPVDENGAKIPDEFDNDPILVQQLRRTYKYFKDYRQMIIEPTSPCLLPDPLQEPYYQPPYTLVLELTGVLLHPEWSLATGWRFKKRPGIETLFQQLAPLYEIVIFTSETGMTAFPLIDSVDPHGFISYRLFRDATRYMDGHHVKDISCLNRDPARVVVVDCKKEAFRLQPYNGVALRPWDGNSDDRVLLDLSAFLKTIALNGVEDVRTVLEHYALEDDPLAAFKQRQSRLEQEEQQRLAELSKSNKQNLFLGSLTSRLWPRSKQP
UniProt P01033: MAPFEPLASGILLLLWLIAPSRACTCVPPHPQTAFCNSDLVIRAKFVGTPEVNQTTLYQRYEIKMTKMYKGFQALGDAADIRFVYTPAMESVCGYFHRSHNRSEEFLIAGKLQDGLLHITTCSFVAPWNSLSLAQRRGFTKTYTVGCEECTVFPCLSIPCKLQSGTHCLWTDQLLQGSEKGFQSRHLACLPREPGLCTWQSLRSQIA

Tests used:
Experiment in all cases: log2 fold change, soluble protein after heating vs DMSO (PISA); higher = thermal stabilisation; K562 lysate, 10 uM; active = over 0.2 and 3.5 SD of the protein, either way, in both replicates (recomputed)
erlotinib = compound: C#Cc1cccc(Nc2ncnc3cc(OCCOC)c(OCCOC)cc23)c1 [erlotinib]
How it was run: (§1)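 Soluble protein was defined as the supernatant remaining after 21,000xg for 90 min, following pooling of heated aliquots and adjustment to 0.5% NP-40 at 4°C. Before that, crude K562 extract at 1 mg/mL protein in PBS pH 7.4 with 1 mM MgCl2 was treated with 10 μM compound for 30 min and heated for 3 min across 48°C-58°C. Quantification used TMTpro 16plex LC-MS/MS with channel sums equalised, and values are log-two fold changes in thermal stability relative to solvent controls from duplicates.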

[1] = compound: C/C(=N\NC(=O)C1=CC(=CC=C1)S(=O)(=O)N2CCOCC2)/C3=C(C=CC(=C3)Cl)O
How it was run: as §1

[2] = compound: C1=CC(=CC=C1C2=NC3=C(N2)C=C(C=C3)C(=O)N)OC4=CC=C(C=C4)Cl
How it was run: as §1

[3] = compound: C1=CC2=C(C=CC(=C2)/C=C\3/C(=O)NC(=NCC4=CC=CS4)S3)N=C1
How it was run: as §1

[4] = compound: C1=CC2=NC=CN=C2C=C1/C=C/3\C(=O)NC(=O)S3
How it was run: as §1

[5] = compound: C1=CC=C(C=C1)C2=NC(=C(N2)C3=CC=NC=C3)C4=CC(=C(C=C4)Cl)O
How it was run: as §1

[6] = compound: C1=CC=C2C(=C1)C3=NNC4=CC=CC(=C43)C2=O
How it was run: as §1

[7] = compound: C1CCN(C1)C(=O)NC2=CC=CC(=C2)NC3=NC=C(C(=N3)NCCC4=CN=CN4)Br
How it was run: as §1

[8] = compound: C1CN(CCC1(CC2=CC=C(C=C2)Cl)N)C3=NC=NC4=C3C=CN4
How it was run: as §1

IRAK-1-4 Inhibitor I = compound: C1COCCN1CCN2C3=CC=CC=C3N=C2NC(=O)C4=CC(=CC=C4)[N+](=O)[O-] [IRAK-1-4 Inhibitor I]
How it was run: as §1

ibrutinib = compound: C=CC(=O)N1CCC[C@@H](n2nc(-c3ccc(Oc4ccccc4)cc3)c3c(N)ncnc32)C1 [ibrutinib]
How it was run: as §1

[9] = compound: CC(=O)c1cnc2ccc(-c3cc(Cl)c(O)c(Cl)c3)nc2c1N[C@H]1CC[C@H](CN(C)C)CC1
How it was run: as §1

ralimetinib = compound: CC(C)(C)Cn1c(N)nc2ccc(-c3[nH]c(C(C)(C)C)nc3-c3ccc(F)cc3)nc21 [ralimetinib]
How it was run: as §1

[10] = compound: CC(C)(O)CC(=O)NCCn1ccc2ncnc(Nc3ccc(Oc4cccc(C(F)(F)F)c4)c(Cl)c3)c21
How it was run: as §1

[11] = compound: CC(C)C1=C2N=C(C=C(N2N=C1)NCC3=CC=CC=C3)NCCCCCCN
How it was run: as §1

[12] = compound: CC1=C(C(CC(=O)N1)C2=CC=C(C=C2)C(F)(F)F)C(=O)NC3=C(C=C4C(=C3)C=NN4)F
How it was run: as §1

[13] = compound: CC1=C(C2=C(C=C1)C(=O)C3=CC=CC=C3N2CCCN)C
How it was run: as §1

[14] = compound: CC1=C(C=C(C=C1)NC(=O)C2=CC(=CC=C2)C(C)(C)C#N)NC3=CC4=C(C=C3)N=CN(C4=O)C
How it was run: as §1

[15] = compound: CC1=C(C=C(C=C1)NC(=O)C2=CC(=CC=C2)N(C)C)NC(=O)C3=CC=C(C=C3)O
How it was run: as §1

[16] = compound: CC1=CC=C(C=C1)SC2=C3C=C(SC3=CN=C2)C(=O)N
How it was run: as §1

Measured: log2 fold change

TMED9 (UniProt Q9BVK6)
inactive: erlotinib -0.023 | [1] 0.054 | [2] -0.063 | [3] 0.023 | [4] -0.04 | [5] -0.02 | [6] -0.008 | [7] 0 | [8] 0.017 | IRAK-1-4 Inhibitor I 0 | ibrutinib 0 | [9] 0.026 | ralimetinib -0.025 | [10] -0.009 | [11] 0 | [12] -0.017 | [13] 0 | [14] -0.011 | [15] -0.023 | [16] 0.023

TMEM106B (UniProt Q9NUM4)
inactive: erlotinib 0.012 | [1] -0.042 | [2] 0.009 | [3] 0.014 | [4] -0.001 | [5] -0.012 | [6] -0.026 | [7] -0.018 | [8] 0.027 | IRAK-1-4 Inhibitor I 0.03 | ibrutinib 0.065 | [9] -0.08 | ralimetinib 0.033 | [10] 0.053 | [11] -0.023 | [12] 0.056 | [13] -0.061 | [14] 0.027 | [15] -0.037 | [16] -0.017

TIMM22 (UniProt Q9Y584)
inactive: erlotinib 0.038 | [1] 0.007 | [2] -0.12 | [3] 0.016 | [4] 0.015 | [5] -0.032 | [6] 0.009 | [7] -0.01 | [8] 0.139 | IRAK-1-4 Inhibitor I 0.03 | ibrutinib 0.074 | [9] 0.014 | ralimetinib -0.005 | [10] -0.037 | [11] -0.008 | [12] 0.003 | [13] 0.063 | [14] -0.048 | [15] -0.042 | [16] -0.017

TKT isoform 2 (UniProt P29401)
inactive: erlotinib -0.026 | [1] -0.022 | [2] 0.013 | [3] -0.004 | [4] -0.023 | [5] -0.006 | [6] 0.035 | [7] 0 | [8] -0.006 | IRAK-1-4 Inhibitor I -0.003 | ibrutinib 0.027 | [9] 0.014 | ralimetinib 0.022 | [10] 0.002 | [11] -0.007 | [12] -0.032 | [13] 0.018 | [14] -0.009 | [15] -0.009 | [16] -0.009

TIMM13 (UniProt Q9Y5L4)
inactive: erlotinib -0.046 | [1] 0.004 | [2] 0.017 | [3] 0.029 | [4] 0.011 | [5] 0.033 | [6] -0.04 | [7] 0.013 | [8] 0.064 | IRAK-1-4 Inhibitor I -0.052 | ibrutinib 0.057 | [9] -0.008 | ralimetinib 0.005 | [10] -0.015 | [11] -0.029 | [12] 0.045 | [13] -0.031 | [14] 0.011 | [15] -0.048 | [16] -0.003

THOC2 (UniProt Q8NI27)
inactive: erlotinib -0.001 | [1] 0.026 | [2] 0.006 | [3] 0.016 | [4] -0.019 | [5] -0.005 | [6] -0.01 | [7] 0.004 | [8] -0.005 | IRAK-1-4 Inhibitor I -0.005 | ibrutinib -0.002 | [9] -0.032 | ralimetinib 0.025 | [10] -0.01 | [11] 0 | [12] 0.001 | [13] -0.02 | [14] -0.016 | [15] 0.03 | [16] 0.011

TIMMDC1 (UniProt Q9NPL8)
inactive: erlotinib -0.057 | [1] -0.013 | [2] 0.015 | [3] 0.028 | [4] -0.018 | [5] -0.001 | [6] 0.032 | [7] 0.033 | [8] -0.02 | IRAK-1-4 Inhibitor I 0.01 | ibrutinib 0.021 | [9] -0.017 | ralimetinib 0.002 | [10] -0.023 | [11] 0.001 | [12] 0.001 | [13] -0.075 | [14] 0.006 | [15] 0.023 | [16] -0.02

TMED4 (UniProt Q7Z7H5)
inactive: erlotinib 0.028 | [1] 0.026 | [2] -0.033 | [3] -0.035 | [4] -0.056 | [5] 0.037 | [6] -0.028 | [7] 0.022 | [8] -0.002 | IRAK-1-4 Inhibitor I 0.031 | ibrutinib 0.035 | [9] 0.041 | ralimetinib -0.008 | [10] -0.07 | [11] -0.022 | [12] 0.019 | [13] -0.02 | [14] -0.064 | [15] -0.056 | [16] 0.019

TKFC (UniProt Q3LXA3)
inactive: erlotinib 0 | [1] -0.005 | [2] 0.002 | [3] 0.005 | [4] 0.008 | [5] -0.022 | [6] -0.009 | [7] -0.014 | [8] 0 | IRAK-1-4 Inhibitor I -0.016 | ibrutinib -0.002 | [9] 0.006 | ralimetinib -0.007 | [10] -0.009 | [11] -0.016 | [12] -0.035 | [13] -0.026 | [14] 0.051 | [15] -0.01 | [16] 0.011

TMEM126A (UniProt Q9H061)
inactive: erlotinib 0 | [1] -0.043 | [2] -0.027 | [3] -0.023 | [4] 0.005 | [5] -0.008 | [6] 0.019 | [7] -0.037 | [8] 0.006 | IRAK-1-4 Inhibitor I -0.016 | ibrutinib 0.023 | [9] 0.002 | ralimetinib 0.05 | [10] -0.03 | [11] -0.037 | [12] 0.051 | [13] 0.017 | [14] -0.05 | [15] 0.003 | [16] 0.014

TIMM10 (UniProt P62072)
inactive: erlotinib 0.003 | [1] 0.024 | [2] -0.015 | [3] 0.083 | [4] 0.007 | [5] 0.041 | [6] 0.094 | [7] 0.049 | [8] -0.073 | IRAK-1-4 Inhibitor I 0.034 | ibrutinib 0.168 | [9] 0.014 | ralimetinib -0.035 | [10] 0.043 | [11] 0.01 | [12] 0.004 | [13] 0.017 | [14] 0.001 | [15] 0.016 | [16] 0.059

TJP2 isoform 7 (UniProt Q9UDY2)
inactive: erlotinib 0.004 | [1] -0.007 | [2] 0.021 | [3] -0.018 | [4] -0.054 | [5] -0.007 | [6] -0.033 | [7] -0.038 | [8] 0.005 | IRAK-1-4 Inhibitor I -0.005 | ibrutinib 0.018 | [9] -0.013 | ralimetinib 0.023 | [10] -0.026 | [11] 0.017 | [12] 0.017 | [13] -0.061 | [14] -0.001 | [15] 0.018 | [16] 0.012

TMEM167A (UniProt Q8TBQ9)
inactive: erlotinib -0.018 | [1] 0.016 | [2] 0.012 | [3] -0.002 | [4] -0.011 | [5] -0.031 | [6] -0.055 | [7] -0.1 | [8] 0.031 | IRAK-1-4 Inhibitor I 0.063 | ibrutinib 0.04 | [9] -0.049 | ralimetinib 0.113 | [10] -0.036 | [11] -0.046 | [12] 0.003 | [13] -0.129 | [14] 0.014 | [15] 0.005 | [16] 0.02

TJAP1 (UniProt Q5JTD0)
inactive: erlotinib 0.046 | [1] -0.106 | [2] 0.006 | [3] -0.011 | [4] -0.058 | [5] 0.002 | [6] 0.01 | [7] -0.088 | [8] 0.013 | IRAK-1-4 Inhibitor I -0.036 | ibrutinib 0.027 | [9] 0.026 | ralimetinib 0.026 | [10] -0.001 | [11] 0.005 | [12] 0.008 | [13] 0.016 | [14] -0.034 | [15] 0.032 | [16] -0.014

TIMM50 isoform 2 (UniProt Q3ZCQ8)
inactive: erlotinib -0.004 | [1] 0.045 | [2] -0.033 | [3] -0.002 | [4] 0.022 | [5] -0.025 | [6] 0.016 | [7] 0 | [8] 0.002 | IRAK-1-4 Inhibitor I -0.008 | ibrutinib 0.04 | [9] -0.032 | ralimetinib 0.014 | [10] -0.053 | [11] -0.017 | [12] 0.105 | [13] 0.052 | [14] 0.047 | [15] 0.014 | [16] -0.032

TIMP1 (UniProt P01033)
inactive: erlotinib 0.005 | [1] -0.03 | [2] 0.013 | [3] 0.019 | [4] -0.01 | [5] -0.009 | [6] -0.048 | [7] -0.025 | [8] 0.032 | IRAK-1-4 Inhibitor I 0.028 | ibrutinib -0.016 | [9] -0.074 | ralimetinib -0.006 | [10] -0.02 | [11] 0.03 | [12] 0.106 | [13] -0.039 | [14] 0.077 | [15] -0.005 | [16] -0.063

Quoted at random: two records from the list
TJAP1 (UniProt Q5JTD0)
inactive: erlotinib 0.046 | [1] -0.106 | [2] 0.006 | [3] -0.011 | [4] -0.058 | [5] 0.002 | [6] 0.01 | [7] -0.088 | [8] 0.013 | IRAK-1-4 Inhibitor I -0.036 | ibrutinib 0.027 | [9] 0.026 | ralimetinib 0.026 | [10] -0.001 | [11] 0.005 | [12] 0.008 | [13] 0.016 | [14] -0.034 | [15] 0.032 | [16] -0.014

TIMM50 isoform 2 (UniProt Q3ZCQ8)
inactive: erlotinib -0.004 | [1] 0.045 | [2] -0.033 | [3] -0.002 | [4] 0.022 | [5] -0.025 | [6] 0.016 | [7] 0 | [8] 0.002 | IRAK-1-4 Inhibitor I -0.008 | ibrutinib 0.04 | [9] -0.032 | ralimetinib 0.014 | [10] -0.053 | [11] -0.017 | [12] 0.105 | [13] 0.052 | [14] 0.047 | [15] 0.014 | [16] -0.032
